# According to patent US9580404B2, “Substituted azines as pesticides” (Novartis Tiergesundheit AG, priority 2012, dated 2017):
# Some entries share one result that the patent states for a list of compounds.
# Test system: Dirofilaria immitis microfilariae
# Assay: Dirofilaria immitis Microfilaria Assay
# Format: cell-based
# Conditions: at 30 ppm; 48 hours at 25° C. and 60% RH
row,Structure (SMILES),Efficacy in percent reduced motility as compared to the control and standards
1,N#Cc1ccc(NC2CCN(c3cc(N4CCC(Nc5ccc(C(F)(F)F)cc5)CC4)ncn3)CC2)cc1C(F)(F)F [Compound 62],above 50%
2,O=[N+]([O-])c1ccc(NN2CCC(Oc3cc(N4CCN(c5ccc(C(F)(F)F)cc5)CC4)ncn3)CC2)cc1C(F)(F)F [Compound 67],above 50%
3,N#Cc1ccc(C(=O)N2CCC(Oc3cc(N4CCN(c5ccc(C(F)(F)F)cc5)CC4)ncn3)CC2)cc1 [Compound 34],above 50%
4,O=C(c1cc(C(F)(F)F)cc(C(F)(F)F)c1)N1CCC(Oc2cc(N3CCN(c4ccc(C(F)(F)F)cc4)CC3)ncn2)CC1 [Compound 44],above 50%
5,O=[N+]([O-])c1ccc(NC2(COc3cc(N4CCN(c5ccc(C(F)(F)F)cc5)CC4)ncn3)CC2)cc1C(F)(F)F [Compound 81],above 50%
6,O=C(c1ccc2c(c1)OC(F)(F)O2)N1CCC(Oc2cc(N3CCN(c4ccc(C(F)(F)F)cc4)CC3)ncn2)CC1 [Compound 46],above 50%
7,O=[N+]([O-])c1ccc(NC2CCC(Oc3cc(N4CCN(c5cccc(C(F)(F)F)c5)CC4)ncn3)CC2)cc1C(F)(F)F (stereo not shown) [Compound 4],above 50%
8,O=[N+]([O-])c1ccc(NC2CCC(Oc3cc(NC4CCN(c5ccc(C(F)(F)F)cc5)CC4)ncn3)CC2)cc1C(F)(F)F (stereo not shown) [Compound 7],above 50%
9,N#Cc1ccc(N2CCOC(COc3cc(N4CCC(Nc5ccc(C(F)(F)F)cc5)CC4)ncn3)C2)cc1C(F)(F)F (stereo not shown) [Compound 64],above 50%
10,O=[N+]([O-])c1cc(N2CCC(Oc3cc(N4CCN(c5ccc(C(F)(F)F)cc5)CC4)ncn3)CC2)ccc1C(F)(F)F [Compound 58],above 50%
11,O=[N+]([O-])c1ccc(OC2CCC(Nc3cc(N4CCC(Nc5ccc(C(F)(F)F)cc5)CC4)ncn3)CC2)cc1C(F)(F)F (stereo not shown) [Compound 78],above 50%
12,N#Cc1ccc(NC2CCN(c3cc(N4CCN(c5ccc(C(F)(F)F)cc5)CC4)ncn3)CC2)cc1C(F)(F)F [Compound 61],above 50%
13,CN(c1ccc(C(F)(F)F)cc1)C1CCN(c2cc(OC3CCN(c4ccc(C#N)c(C(F)(F)F)c4)CC3)ncn2)CC1 [Compound 54],above 50%
14,N#Cc1ccc(N2CCOC(COc3cc(N4CCN(c5ccc(C(F)(F)F)cc5)CC4)ncn3)C2)cc1C(F)(F)F (stereo not shown) [Compound 63],above 50%
15,O=S(=O)(c1ccc(C(F)(F)F)cc1)N1CCC(Oc2cc(N3CCN(c4ccc(C(F)(F)F)cc4)CC3)ncn2)CC1 [Compound 31],above 50%
16,O=[N+]([O-])c1ccc(N[C@H]2CC[C@H](Oc3ccnc(N4CCN(c5ccc(C(F)(F)F)cc5)CC4)c3)CC2)cc1C(F)(F)F [Compound 101],above 50%
17,N#Cc1ccc(N2CCC(Oc3cc(N4CCC(Nc5ccc(C(F)(F)F)cc5)CC4)ncn3)CC2)cc1C(F)(F)F [Compound 53],above 50%
18,N#Cc1ccc(N2CC(Oc3cc(N4CCC(Nc5ccc(C(F)(F)F)cc5)CC4)ncn3)C2)cc1C(F)(F)F [Compound 75],above 50%
19,O=C(c1cccc(C(F)(F)F)c1)N1CCC(Oc2cc(N3CCN(c4ccc(C(F)(F)F)cc4)CC3)ncn2)CC1 [Compound 35],above 50%
20,N#Cc1cccc(CN2CCC(Oc3cc(N4CCN(c5ccc(C(F)(F)F)cc5)CC4)ncn3)CC2)c1 [Compound 42],above 50%
21,O=[N+]([O-])c1ccc(NC2CCC(Oc3cc(N4CCC(Nc5ccc(C(F)(F)F)cc5)C4)ncn3)CC2)cc1C(F)(F)F (stereo not shown) [Compound 9],above 50%
22,O=[N+]([O-])c1ccc(N2CCOC(COc3cc(N4CCN(c5ccc(C(F)(F)F)cc5)CC4)ncn3)C2)cc1C(F)(F)F (stereo not shown) [Compound 21],above 50%
23,O=[N+]([O-])c1ccc(NC2(COc3cc(N4CCC(Nc5ccc(C(F)(F)F)cc5)CC4)ncn3)CC2)cc1C(F)(F)F [Compound 83],above 50%
24,FC(F)(F)Oc1ccc(CN2CCC(Oc3cc(N4CCN(c5ccc(C(F)(F)F)cc5)CC4)ncn3)CC2)cc1 [Compound 45],above 50%
25,O=C(c1ccc(S(=O)(=O)C(F)(F)F)cc1)N1CCC(Oc2cc(N3CCN(c4ccc(C(F)(F)F)cc4)CC3)ncn2)CC1 [Compound 48],above 50%
26,O=[N+]([O-])c1ccc(N[C@H]2CC[C@H](Oc3cc(N4CCN(c5ccc(C(F)(F)F)cc5)CC4)ccn3)CC2)cc1C(F)(F)F [Compound 102],above 50%

row,Structure (SMILES),Efficacy in percent reduced motility as compared to the control and standards
1,CCS(=O)(=O)Nc1ccc(N[C@H]2CC[C@H](Oc3cc(N4CCN(c5ccc(C(F)(F)F)cc5)CC4)ncn3)CC2)cc1C(F)(F)F [Compound 16],above 50%
2,N#Cc1cccc(C(=O)N2CCC(Oc3cc(N4CCN(c5ccc(C(F)(F)F)cc5)CC4)ncn3)CC2)c1 [Compound 41],above 50%
3,Nc1ccc(NC2CCC(Oc3cc(N4CCN(c5ccc(C(F)(F)F)cc5)CC4)ncn3)CC2)cc1C(F)(F)F (stereo not shown) [Compound 15],above 50%
4,O=C(c1ccc(F)cc1)N1CCC(Oc2cc(N3CCN(c4ccc(C(F)(F)F)cc4)CC3)ncn2)CC1 [Compound 40],above 50%
5,O=[N+]([O-])c1ccc(S(=O)(=O)N2CCC(Oc3cc(N4CCN(c5ccc(C(F)(F)F)cc5)CC4)ncn3)CC2)cc1 [Compound 28],above 50%
6,Fc1cc(F)c(CN2CCC(Oc3cc(N4CCN(c5ccc(C(F)(F)F)cc5)CC4)ncn3)CC2)c(F)c1 [Compound 47],above 50%
7,O=[N+]([O-])c1ccc(N2CCC(Oc3cc(N4CCN(c5ccc(C(F)(F)F)cc5)CC4)ncn3)C2)cc1C(F)(F)F (stereo not shown) [Compound 25],above 50%
8,FC(F)(F)Oc1cccc(CN2CCC(Oc3cc(N4CCN(c5ccc(C(F)(F)F)cc5)CC4)ncn3)CC2)c1 [Compound 51],above 50%
9,N#Cc1ccc(NCC2CC(Oc3cc(N4CCN(c5ccc(C(F)(F)F)cc5)CC4)ncn3)C2)cc1C(F)(F)F (stereo not shown) [Compound 76],above 50%
10,CN(c1ccc([N+](=O)[O-])c(C(F)(F)F)c1)[C@H]1CC[C@H](Oc2cc(N3CCN(c4ccc(C(F)(F)F)cc4)CC3)ncn2)CC1 [Compound 17],above 50%
11,O=[N+]([O-])c1ccc(O[C@H]2CC[C@H](Nc3cc(N4CCN(c5ccc(C(F)(F)F)cc5)CC4)ncn3)CC2)cc1C(F)(F)F [Compound 60],above 50%
12,N#Cc1ccc(OC2CCN(c3cc(N4CCN(c5ccc(C(F)(F)F)cc5)CC4)ncn3)CC2)cc1C(F)(F)F [Compound 84],above 50%
13,FC(F)(F)c1ccc(CN2CCC(Oc3cc(N4CCN(c5ccc(C(F)(F)F)cc5)CC4)ncn3)CC2)cc1 [Compound 36],above 50%
14,O=[N+]([O-])c1ccc(N2CCC(Oc3cc(N4CCN(c5ccc(C(F)(F)F)cc5)CC4)ncn3)CC2)cc1C(F)(F)F [Compound 5],above 50%
15,O=[N+]([O-])c1ccc(N2CCC(Oc3cc(N4CCC(Nc5ccc(C(F)(F)F)cc5)CC4)ncn3)CC2)cc1C(F)(F)F [Compound 69],above 50%
16,O=[N+]([O-])c1ccc(NC2CCC(Oc3cc(NC4CCN(c5ccc(C(F)(F)F)cc5)C4)ncn3)CC2)cc1C(F)(F)F (stereo not shown) [Compound 10],above 50%
17,FC(F)(F)c1ccc(N2CCN(c3cc(N4CCN(c5ccc(C(F)(F)F)cc5)CC4)ncn3)CC2)cc1 [Compound 1],above 50%
18,N#Cc1ccc(NCC2CC(Oc3cc(N4CCC(Nc5ccc(C(F)(F)F)cc5)CC4)ncn3)C2)cc1C(F)(F)F (stereo not shown) [Compound 77],above 50%
19,Fc1cc(CN2CCC(Oc3cc(N4CCN(c5ccc(C(F)(F)F)cc5)CC4)ncn3)CC2)cc(C(F)(F)F)c1 [Compound 37],above 50%
20,O=[N+]([O-])c1ccc(NN2CCC(Oc3cc(N4CCC(Nc5ccc(C(F)(F)F)cc5)CC4)ncn3)CC2)cc1C(F)(F)F [Compound 68],above 50%
21,O=C(c1ccc(OC(F)(F)F)cc1)N1CCC(Oc2cc(N3CCN(c4ccc(C(F)(F)F)cc4)CC3)ncn2)CC1 [Compound 32],above 50%
22,O=[N+]([O-])c1ccc(NC2CCN(c3ccnc(N4CCN(c5ccc(C(F)(F)F)cc5)CC4)c3)CC2)cc1C(F)(F)F [Compound 99],above 50%
23,FC(F)(F)Sc1ccc(N2CCC(Oc3cc(N4CCC(Nc5ccc(C(F)(F)F)cc5)CC4)ncn3)CC2)cc1 [Compound 72],above 50%
24,Fc1cc(N2CCC(Oc3cc(N4CCC(Nc5ccc(C(F)(F)F)cc5)CC4)ncn3)CC2)ccc1C(F)(F)F [Compound 71],above 50%
25,N#Cc1ccc(N2CCC(Oc3cc(N4CCC(Nc5ccc(C(F)(F)F)cc5)CC4)ncn3)C2)cc1C(F)(F)F (stereo not shown) [Compound 66],above 50%
26,O=C(c1ccc(C(F)(F)F)cc1)N1CCC(Oc2cc(N3CCN(c4ccc(C(F)(F)F)cc4)CC3)ncn2)CC1 [Compound 33],above 50%
